Experimental findings from publication PMC7819943, “Rice protein-binding microarrays: a tool to detect cis-acting elements near promoter regions in rice” are described below.

The other results are listed elsewhere or left out.

This assay deals with T1, OsSMF1 (Oryza sativa, UniProt Q6ZLB0 1-436).
T1 sequence: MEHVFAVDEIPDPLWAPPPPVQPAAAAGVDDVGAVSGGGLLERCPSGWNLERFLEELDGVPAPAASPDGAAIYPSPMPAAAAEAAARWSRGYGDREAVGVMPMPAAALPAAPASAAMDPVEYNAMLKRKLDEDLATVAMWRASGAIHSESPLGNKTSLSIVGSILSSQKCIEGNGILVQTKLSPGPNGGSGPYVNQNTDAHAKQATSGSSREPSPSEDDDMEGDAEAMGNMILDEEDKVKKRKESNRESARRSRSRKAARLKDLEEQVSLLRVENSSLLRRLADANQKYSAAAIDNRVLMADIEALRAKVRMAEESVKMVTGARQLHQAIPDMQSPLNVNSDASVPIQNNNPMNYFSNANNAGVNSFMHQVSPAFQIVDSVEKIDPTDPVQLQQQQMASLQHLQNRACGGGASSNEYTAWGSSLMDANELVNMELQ
As to the kind of experiment: protein-binding microarray (RPBM); PBS, 2% BSA, 51.3 ng/ul salmon testes DNA, 50 uM zinc acetate, 200 nM TF, 25 C, 1 h; high values mean tight binding. Particulars: protein: recombinant; tags: N-terminal polyhistidine and DsRed monomer fusion (pET32a); chain copies: 2; label: CyDye5-dUTP incorporated in the synthesized complementary strand; 3' TTTTT single-stranded linker to array surface; dsDNA, one strand shown. Summed up: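 Binding signal is reported as fluorescence intensity per feature (arbitrary units) from an Axon 4000B scanner. Incubation used 200 nM of each Ni–NTA-purified, N-terminally polyhistidine- and DsRed-fused transcription factor from E. coli BL21-CodonPlus on a double-stranded custom Agilent array for 1 h at 25 °C, with 50 µM zinc acetate in the buffer, followed by washing.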
On to “AGTGGGTGAGGGTTGTAGAGGAAGGCATGCGAAGGAAAATCGGAGTCACCTAGTGCAG”, for which the binding signal is 3210 fluorescence intensity (a.u.).

On to “TTTCACCCGGGACTAAAGATCGCTATCTTTAGTCCCGGATCGGAGTCACCTAGTGCAG”, for which the binding signal is 52600 fluorescence intensity (a.u.).

On to “TCTCCTTATAGCCCTCTAGGATGACGTTAAGGGGTTGCCTCGGAGTCACCTAGTGCAG”, for which the binding signal is 3490 fluorescence intensity (a.u.).

For the sequence “CTTTGTACAAGTACGTACACGTATGATCAACGACAGTTTCCGGAGTCACCTAGTGCAG”, the binding signal was 7980 fluorescence intensity (a.u.).

Turning to “GGGCTTGCCCTCCATGAGCACCTCACGGCTGACGGAGGCGCGGAGTCACCTAGTGCAG”, the binding signal is 3440 fluorescence intensity (a.u.).

As to “TTGGACGATGACAACCTAGCGCGACGTGGCAGCGCGCCACCGGAGTCACCTAGTGCAG”, the binding signal was 11300 fluorescence intensity (a.u.).

As for “GCAACTGACGACTGCGACTGCCTCCTCTTCTTCTTCTTCGCGGAGTCACCTAGTGCAG”, the binding signal was 3610 fluorescence intensity (a.u.).

As for “GTGACAGTCCATTGTATTCACACGTGGTCCACTGTATTCACGGAGTCACCTAGTGCAG”, the binding signal is 5200 fluorescence intensity (a.u.).

Turning to “GGATCTCCGCATGCGCCACGTCCGCGGCGGGATCTAGCGGCGGAGTCACCTAGTGCAG”, the binding signal is 8200 fluorescence intensity (a.u.).

Take “GTCATCATGTGCGCACTAATCTCTGAGTCAGTGACAAATTCGGAGTCACCTAGTGCAG”: the binding signal was 6820 fluorescence intensity (a.u.).

For the sequence “CCTAATTTGCGTGATTGGATTGGTTGGTTGTGTTGTAATGCGGAGTCACCTAGTGCAG”, the binding signal was 29800 fluorescence intensity (a.u.).

With “GTGAGGTAATCCCACATCATCCTCCCGCGGATTTACCATTCGGAGTCACCTAGTGCAG”, the binding signal is 5770 fluorescence intensity (a.u.).

Consider “GAAGAACATGGCGAGCACCTGACTAAACACTGCAAGCGAGCGGAGTCACCTAGTGCAG”, for which the binding signal is 4390 fluorescence intensity (a.u.).

Regarding “TTGTAGTACTCCTCACCACGTCGTCGACTCGATCGTACCTCGGAGTCACCTAGTGCAG”, the binding signal was 4110 fluorescence intensity (a.u.).

Take “TAATAGTAAGCTATAAACTGGCTAAATGCTGAGGTGGAGGCGGAGTCACCTAGTGCAG”: the binding signal is 4200 fluorescence intensity (a.u.).

Regarding “AGATTTAGCCACATCACCTCGATAACGTGGCCAAATTATACGGAGTCACCTAGTGCAG”, the binding signal is 4450 fluorescence intensity (a.u.).

Regarding “AGTGGAAAATTTTGAATAAGGCAATTGAAATTAGAAGGTGCGGAGTCACCTAGTGCAG”, the binding signal was 26800 fluorescence intensity (a.u.).

For the sequence “GAATGATGACTGGACTGCCACACGTACACCACGTAGACCACGGAGTCACCTAGTGCAG”, the binding signal was 9760 fluorescence intensity (a.u.).

Take “TAAATGCTTTGCTACTCTGAGCTGCTGGTGCTGCGGATGACGGAGTCACCTAGTGCAG”: the binding signal was 3160 fluorescence intensity (a.u.).

For “GGTTGGAGCCGATGTGGACGTCATCGAGCTGCTCGCATCCCGGAGTCACCTAGTGCAG”, the binding signal is 6430 fluorescence intensity (a.u.).

Take “AGATGTCGCCGGTGAAGTGGTTCTCTTCCAGCCGGACCCGCGGAGTCACCTAGTGCAG”: the binding signal was 3330 fluorescence intensity (a.u.).

In the case of “TGGTGCTTGCCAGTACGTTATTTCTAATAATGTGCTGACTCGGAGTCACCTAGTGCAG”, the binding signal is 4620 fluorescence intensity (a.u.).

Consider “TCATTTTCAGATTAGAGGCTTTGCATGGCCTGCAGTTCTGCGGAGTCACCTAGTGCAG”, for which the binding signal was 31600 fluorescence intensity (a.u.).

With “CGGTCTTGTTGCAGACACGTCCTTCCTATTTGTTTCCAAACGGAGTCACCTAGTGCAG”, the binding signal was 6760 fluorescence intensity (a.u.).

On to “CAAGCTGGCTGCCTCCCGCGTGGCACTCGTGCCTCCTCTGCGGAGTCACCTAGTGCAG”, for which the binding signal is 5530 fluorescence intensity (a.u.).

With “TTAAGTAGGATACGATCACACGATGCATGCATGTGGAGTACGGAGTCACCTAGTGCAG”, the binding signal is 3550 fluorescence intensity (a.u.).

Consider “TTGTGAAATTGAAAATACACCTTATAATGAGGTGGTTTTCCGGAGTCACCTAGTGCAG”, for which the binding signal was 4050 fluorescence intensity (a.u.).

On to “AATCGAGTATATGTCATCGTCGTCGTCATGTCATGCAGCCCGGAGTCACCTAGTGCAG”, for which the binding signal is 5200 fluorescence intensity (a.u.).

Take “GTCGAACCGCTGCGTCACTCTGGTCAGGCGGCATGTGATCCGGAGTCACCTAGTGCAG”: the binding signal is 6390 fluorescence intensity (a.u.).

“CTCCCGCCCGCCGCAGCCGACGCCACGCGCGCGATCTCCCCGGAGTCACCTAGTGCAG”: the binding signal is 3390 fluorescence intensity (a.u.).

For the sequence “ATCTTGATGGGTACGTGTCCAACATCGTCATGGCCATTGGCGGAGTCACCTAGTGCAG”, the binding signal is 5290 fluorescence intensity (a.u.).

As for “GTTGTCACCCTTGTGACTATTGTGACGTGTGCATATCTCACGGAGTCACCTAGTGCAG”, the binding signal is 10800 fluorescence intensity (a.u.).

On to “ATCACATGTCATACACACACAACTTTTCAGTCACATCATCCGGAGTCACCTAGTGCAG”, for which the binding signal was 3510 fluorescence intensity (a.u.).

“CTGACATGTTTCTTTACATACTTATATAATCCAATTAATACGGAGTCACCTAGTGCAG”: the binding signal was 29200 fluorescence intensity (a.u.).

For the sequence “CACAGCTATACTGGAACGATGGAATCTCCAATTAGTACACCGGAGTCACCTAGTGCAG”, the binding signal was 16700 fluorescence intensity (a.u.).

On to “ATTCTCCTCGCTTCCTCCTCTTTCTCTCTCTACGCCCTCGCGGAGTCACCTAGTGCAG”, for which the binding signal is 12200 fluorescence intensity (a.u.).

For the sequence “CTGTCTGTCGTATATACGTATGAGGTGGTAGTATCTCCGTCGGAGTCACCTAGTGCAG”, the binding signal was 3410 fluorescence intensity (a.u.).

In the case of “CTAACAAACGCAGCCGAGACTGTTGGAACATAATCTTGGGCGGAGTCACCTAGTGCAG”, the binding signal was 3190 fluorescence intensity (a.u.).

Regarding “CGGGAGCCAGGTGGATTGGGCTGAGGTGGTGGTGGTGGGCCGGAGTCACCTAGTGCAG”, the binding signal was 4900 fluorescence intensity (a.u.).

For “CCAAAGGCCCAAAACCAGCCTCCGTCTCCGTGTCACCCCTCGGAGTCACCTAGTGCAG”, the binding signal is 5070 fluorescence intensity (a.u.).

With “AACATTGTGCTTGTCATCATAATTCGTCACTAGCAGGCTTCGGAGTCACCTAGTGCAG”, the binding signal was 4900 fluorescence intensity (a.u.).

As to “TGACACGGGAAAGCACCACCCGATGACTAGACCAGAGACCCGGAGTCACCTAGTGCAG”, the binding signal was 5270 fluorescence intensity (a.u.).
